These are yes or no findings as the source states them, for the method shown. Binding seen in cells or lysates may run through a third protein. Some binding calls cover weakened binding; strength is not graded here.
T1: vascular endothelial cadherin (VE-cadherin) (human (endogenous in HMVECs)), P33151
T1 chain: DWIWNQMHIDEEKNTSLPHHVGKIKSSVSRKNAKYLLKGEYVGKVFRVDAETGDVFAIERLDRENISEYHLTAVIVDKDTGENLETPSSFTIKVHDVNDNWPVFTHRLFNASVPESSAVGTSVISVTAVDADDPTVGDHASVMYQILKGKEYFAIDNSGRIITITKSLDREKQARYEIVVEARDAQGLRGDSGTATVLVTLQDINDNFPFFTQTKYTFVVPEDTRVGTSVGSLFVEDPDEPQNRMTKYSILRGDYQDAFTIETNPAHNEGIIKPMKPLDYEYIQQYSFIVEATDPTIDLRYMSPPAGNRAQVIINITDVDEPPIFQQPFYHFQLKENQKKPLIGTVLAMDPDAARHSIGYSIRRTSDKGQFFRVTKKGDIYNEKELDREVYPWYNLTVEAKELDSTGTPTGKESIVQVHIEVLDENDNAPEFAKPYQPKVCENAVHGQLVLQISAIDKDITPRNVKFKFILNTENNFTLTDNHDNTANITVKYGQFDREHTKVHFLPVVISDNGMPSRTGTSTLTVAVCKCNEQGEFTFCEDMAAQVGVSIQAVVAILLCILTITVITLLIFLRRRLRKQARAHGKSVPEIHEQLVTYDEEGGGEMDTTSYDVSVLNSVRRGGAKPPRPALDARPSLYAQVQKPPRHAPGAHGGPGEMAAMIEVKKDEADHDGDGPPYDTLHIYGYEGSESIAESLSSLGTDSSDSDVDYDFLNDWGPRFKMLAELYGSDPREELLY

T2: β-catenin (human (endogenous in HMVECs)), P35222
T2 chain: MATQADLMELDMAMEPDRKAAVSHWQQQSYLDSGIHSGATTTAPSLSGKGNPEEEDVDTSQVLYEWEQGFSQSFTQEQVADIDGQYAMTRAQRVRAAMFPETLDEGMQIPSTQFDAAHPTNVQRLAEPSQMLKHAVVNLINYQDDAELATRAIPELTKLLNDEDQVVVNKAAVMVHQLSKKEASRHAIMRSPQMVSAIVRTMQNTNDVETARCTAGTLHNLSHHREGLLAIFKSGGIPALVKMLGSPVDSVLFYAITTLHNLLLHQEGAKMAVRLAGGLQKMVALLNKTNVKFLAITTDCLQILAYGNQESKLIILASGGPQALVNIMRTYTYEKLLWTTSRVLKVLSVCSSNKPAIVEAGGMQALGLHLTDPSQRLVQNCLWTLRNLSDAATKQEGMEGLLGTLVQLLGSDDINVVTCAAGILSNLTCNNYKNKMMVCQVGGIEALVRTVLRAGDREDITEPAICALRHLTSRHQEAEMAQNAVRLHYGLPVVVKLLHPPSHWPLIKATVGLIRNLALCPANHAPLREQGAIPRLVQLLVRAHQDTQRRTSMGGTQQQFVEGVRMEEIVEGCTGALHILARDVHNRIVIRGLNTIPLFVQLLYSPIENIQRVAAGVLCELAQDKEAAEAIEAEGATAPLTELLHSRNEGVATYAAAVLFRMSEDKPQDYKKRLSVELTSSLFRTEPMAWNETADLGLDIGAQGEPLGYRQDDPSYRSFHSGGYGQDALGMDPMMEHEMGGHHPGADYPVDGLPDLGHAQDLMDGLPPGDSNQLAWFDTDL

B1: β-catenin, P35222 1-781 (protein)
chain: T2 chain
B2: vascular endothelial cadherin (VE-cadherin), P33151 48-784 (protein)
chain: T1 chain

What was measured:
[1] = molecular target: T1, vascular endothelial cadherin …; experiment: co-IP; endogenous proteins of confluent, serum-starved HMVECs, with or without imatinib (10 μM, 1 h) and VEGF (100 ng/mL, 5 or 15 min); NP-40 lysis buffer (50 mM Tris-HCl pH 8.0, 150 mM NaCl, 1% NP-40); 300 μg pre-cleared lysate with VE-cadherin or β-catenin antibody overnight at 4°C, Protein G Sepharose; Western blot; conditions: remark: other sources report otherwise
[2] = molecular target: T2, β-catenin (human (endogenous in …)); experiment: as above; conditions: remark: other sources report otherwise

| Binder | binding [1] | binding [2] |
| --- | --- | --- |
| B1 | binds | – |
| B2 | – | binds |

Reference: article PMC3868616
